Assay results taken from paper doi:10.1101/2020.07.13.200055.
For at least one entry, the source does not settle the construct or the ends of the probe. For part of these data: A weaker result is weaker than the reference pair of the same experiment.

How the values were obtained:
[1] = test system: Pol gamma holoenzyme (Pol gammaA + Pol gammaB deltaI4) del4-4,Pol,gammaB:; assay: EMSA; settings: 0.5 uM Pol gamma, 0.75 uM DNA
[2] = test system: PARP1 + Pol gamma holoenzyme (Pol gammaA + Pol gammaB deltaI4) del4-4,Pol,gammaB:; assay: EMSA + Western blot

CTTTTCTGGTGAAAAGCTCGTCGGCAGCGCTTGAGCAGCGGCAGCTGGTGCTGCCGCTGCTCAAGCGCTGCCGAC [d3ntgap (75-nt dumbbell with 3-nt gap)]
binding result [1]: binds | binding result ([2]; 2 mM NAD+ plus Olaparib, dissociation prevented): binds | binding result ([2]; 2 mM NAD+, supershift dissociates to the Pol gamma-DNA complex): binds more weakly
